# Laboratory results published in the supplement of paper PMC6143611.
# Counter-ions that a name gives are not always drawn. ± gives the uncertainty stated by the source. The list shows a part of the results. Part of the spread comes from offsets between plates or batches.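 Larvae carried a heat-shock-induced fluorescent stripe in rod outer segments, set at 6 dpf; the shedding distance runs from this stripe to the outer segment tip, measured in confocal stacks, about three fish per compound. The controls got 0.2% DMSO vehicle, and the paper flagged compounds with at least a 20% change against the same-week control and p < 0.001 (Dunnett test on mixed-effects models).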
# Columns and labels:
# [1] = test system: Danio rerio larva rod photoreceptor outer segment; assay: rod outer segment growth distance Dg, difference from same-week DMSO control mean; higher = more outer segment growth; conditions: 20 µM; treatment time: 4 days (6-10 dpf)
# [2] = test system: Danio rerio larva rod photoreceptor outer segment; assay: rod outer segment shedding distance Ds, difference from same-week DMSO control mean; higher = less outer segment shedding; conditions: 20 µM; treatment time: 4 days (6-10 dpf)
Compound,rod outer segment growth distance Dg [1] [um],rod outer segment shedding distance Ds [2] [um]
Nc1ncn([C@H]2C[C@H](O)[C@@H](CO)O2)c(=O)n1 [Decitabine],0.31 ± 0.17,-1.54 ± 0.23
Cc1cc(Nc2cc(CN3CCOCC3)c3nc(C)c(Cc4ccc(Cl)cc4F)n3n2)n[nH]1,-0.47 ± 0.34,-1.12 ± 0.25
NC(=O)[C@@H](CCC(F)(F)F)N(Cc1ccc(-c2ncon2)cc1F)S(=O)(=O)c1ccc(Cl)cc1,-0.51 ± 0.35,-1.4 ± 0.43
CC(C)(C)C(=O)OCOP(=O)(COCCn1cnc2c(N)ncnc21)OCOC(=O)C(C)(C)C [Adefovir Dipivoxil],0.74 ± 0.28,-0.61 ± 0.15
COc1cc(C2Oc3cc([C@H]4Oc5cc(O)cc(O)c5C(=O)[C@@H]4O)ccc3OC2CO)ccc1O (some centres not stated) [Silibinin],0.27 ± 0.23,-0.34 ± 0.26
COc1cnc(NS(=O)(=O)c2ccc(N)cc2)nc1 [Sulfameter],0.05 ± 0.24,-0.42 ± 0.17
"Cc1cc(Nc2cc(N3CCN(C)CC3)nc(Sc3ccc(NC(=O)C4CC4)cc3)n2)n[nH]1 [VX-680 (Tozasertib, MK-0457)]",-0.42 ± 0.086,-0.98 ± 0.2
CCOC(=O)[C@H](CCc1ccccc1)N[C@@H](C)C(=O)N1CCC[C@H]1C(=O)O [Enalapril Maleate],-0.04 ± 0.25,-1.88 ± 0.36
COc1ccc(Cl)cc1C(=O)NCCc1ccc(S(=O)(=O)NC(=O)NC2CCCCC2)cc1 [Glyburide],-0.13 ± 0.27,-0.32 ± 0.15
CCOc1nc2cccc(C(=O)OCc3oc(=O)oc3C)c2n1Cc1ccc(-c2ccccc2-c2noc(=O)[nH]2)cc1 [Azilsartan Medoxomil],1.36 ± 0.15,-0.09 ± 0.13
C[C@]12CC[C@@H]3c4ccc(O)cc4C[C@@H](CCCCCCCCC[S+]([O-])CCCC(F)(F)C(F)(F)F)[C@H]3[C@@H]1CC[C@@H]2O (some centres not stated) [Fulvestrant],-0.14 ± 0.16,-1.23 ± 0.21

# For convenience, 2 of the compounds above:
Compound,rod outer segment growth distance Dg [1] [um],rod outer segment shedding distance Ds [2] [um]
COc1ccc(Cl)cc1C(=O)NCCc1ccc(S(=O)(=O)NC(=O)NC2CCCCC2)cc1 [Glyburide],-0.13 ± 0.27,-0.32 ± 0.15
CCOc1nc2cccc(C(=O)OCc3oc(=O)oc3C)c2n1Cc1ccc(-c2ccccc2-c2noc(=O)[nH]2)cc1 [Azilsartan Medoxomil],1.36 ± 0.15,-0.09 ± 0.13
